This is an account of results in paper PMC10851022.

Amino acid sequences for entries named in this document (tags omitted).
UniProt Q07157: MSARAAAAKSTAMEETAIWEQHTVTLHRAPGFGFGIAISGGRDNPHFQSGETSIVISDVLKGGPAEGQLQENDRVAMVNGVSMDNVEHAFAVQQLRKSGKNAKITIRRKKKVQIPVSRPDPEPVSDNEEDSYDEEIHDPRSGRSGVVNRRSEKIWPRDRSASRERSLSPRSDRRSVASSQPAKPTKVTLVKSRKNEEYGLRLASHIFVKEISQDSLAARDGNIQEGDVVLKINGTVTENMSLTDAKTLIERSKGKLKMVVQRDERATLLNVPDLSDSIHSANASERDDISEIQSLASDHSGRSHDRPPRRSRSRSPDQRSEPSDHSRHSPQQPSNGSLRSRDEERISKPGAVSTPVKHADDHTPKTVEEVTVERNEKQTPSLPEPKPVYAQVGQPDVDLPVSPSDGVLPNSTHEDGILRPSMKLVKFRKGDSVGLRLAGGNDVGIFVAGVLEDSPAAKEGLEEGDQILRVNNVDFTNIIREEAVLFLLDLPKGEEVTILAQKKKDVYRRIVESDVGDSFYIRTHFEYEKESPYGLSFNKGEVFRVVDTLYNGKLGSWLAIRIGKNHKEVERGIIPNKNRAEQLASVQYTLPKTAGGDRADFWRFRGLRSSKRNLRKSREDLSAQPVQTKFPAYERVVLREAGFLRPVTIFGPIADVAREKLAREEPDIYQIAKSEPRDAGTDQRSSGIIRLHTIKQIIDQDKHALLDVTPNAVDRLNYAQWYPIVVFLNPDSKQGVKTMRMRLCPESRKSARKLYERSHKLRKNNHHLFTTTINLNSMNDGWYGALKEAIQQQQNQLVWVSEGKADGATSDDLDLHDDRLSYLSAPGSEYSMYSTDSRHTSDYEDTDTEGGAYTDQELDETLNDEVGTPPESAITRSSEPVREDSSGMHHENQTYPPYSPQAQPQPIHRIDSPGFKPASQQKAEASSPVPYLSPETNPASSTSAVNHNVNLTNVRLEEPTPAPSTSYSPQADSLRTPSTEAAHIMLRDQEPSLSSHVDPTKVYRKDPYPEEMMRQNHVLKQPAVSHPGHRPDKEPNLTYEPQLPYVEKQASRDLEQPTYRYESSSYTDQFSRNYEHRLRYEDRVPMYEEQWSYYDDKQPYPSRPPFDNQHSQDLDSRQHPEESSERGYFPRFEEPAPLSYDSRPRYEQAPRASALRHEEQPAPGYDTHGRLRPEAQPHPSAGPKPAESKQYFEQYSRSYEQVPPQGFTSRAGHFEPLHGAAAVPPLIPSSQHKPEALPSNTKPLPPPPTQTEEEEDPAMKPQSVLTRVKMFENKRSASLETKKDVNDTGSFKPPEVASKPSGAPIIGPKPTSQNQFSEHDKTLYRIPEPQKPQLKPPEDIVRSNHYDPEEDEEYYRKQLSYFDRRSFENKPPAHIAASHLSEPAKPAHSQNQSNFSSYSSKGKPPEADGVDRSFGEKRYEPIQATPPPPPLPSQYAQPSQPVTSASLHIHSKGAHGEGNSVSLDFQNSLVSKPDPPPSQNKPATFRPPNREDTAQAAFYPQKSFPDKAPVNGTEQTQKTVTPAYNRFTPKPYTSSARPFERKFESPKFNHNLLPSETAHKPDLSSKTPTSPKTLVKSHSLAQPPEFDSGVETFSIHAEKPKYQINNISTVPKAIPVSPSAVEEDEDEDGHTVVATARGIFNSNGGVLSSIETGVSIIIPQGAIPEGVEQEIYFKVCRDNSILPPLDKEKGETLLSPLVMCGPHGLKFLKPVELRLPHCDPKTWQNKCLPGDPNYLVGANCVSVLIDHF

The target in this test is T1, nephrin (human (endogenous in conditionally immortalized human podocytes)) (UniProt O60500).
T1 sequence: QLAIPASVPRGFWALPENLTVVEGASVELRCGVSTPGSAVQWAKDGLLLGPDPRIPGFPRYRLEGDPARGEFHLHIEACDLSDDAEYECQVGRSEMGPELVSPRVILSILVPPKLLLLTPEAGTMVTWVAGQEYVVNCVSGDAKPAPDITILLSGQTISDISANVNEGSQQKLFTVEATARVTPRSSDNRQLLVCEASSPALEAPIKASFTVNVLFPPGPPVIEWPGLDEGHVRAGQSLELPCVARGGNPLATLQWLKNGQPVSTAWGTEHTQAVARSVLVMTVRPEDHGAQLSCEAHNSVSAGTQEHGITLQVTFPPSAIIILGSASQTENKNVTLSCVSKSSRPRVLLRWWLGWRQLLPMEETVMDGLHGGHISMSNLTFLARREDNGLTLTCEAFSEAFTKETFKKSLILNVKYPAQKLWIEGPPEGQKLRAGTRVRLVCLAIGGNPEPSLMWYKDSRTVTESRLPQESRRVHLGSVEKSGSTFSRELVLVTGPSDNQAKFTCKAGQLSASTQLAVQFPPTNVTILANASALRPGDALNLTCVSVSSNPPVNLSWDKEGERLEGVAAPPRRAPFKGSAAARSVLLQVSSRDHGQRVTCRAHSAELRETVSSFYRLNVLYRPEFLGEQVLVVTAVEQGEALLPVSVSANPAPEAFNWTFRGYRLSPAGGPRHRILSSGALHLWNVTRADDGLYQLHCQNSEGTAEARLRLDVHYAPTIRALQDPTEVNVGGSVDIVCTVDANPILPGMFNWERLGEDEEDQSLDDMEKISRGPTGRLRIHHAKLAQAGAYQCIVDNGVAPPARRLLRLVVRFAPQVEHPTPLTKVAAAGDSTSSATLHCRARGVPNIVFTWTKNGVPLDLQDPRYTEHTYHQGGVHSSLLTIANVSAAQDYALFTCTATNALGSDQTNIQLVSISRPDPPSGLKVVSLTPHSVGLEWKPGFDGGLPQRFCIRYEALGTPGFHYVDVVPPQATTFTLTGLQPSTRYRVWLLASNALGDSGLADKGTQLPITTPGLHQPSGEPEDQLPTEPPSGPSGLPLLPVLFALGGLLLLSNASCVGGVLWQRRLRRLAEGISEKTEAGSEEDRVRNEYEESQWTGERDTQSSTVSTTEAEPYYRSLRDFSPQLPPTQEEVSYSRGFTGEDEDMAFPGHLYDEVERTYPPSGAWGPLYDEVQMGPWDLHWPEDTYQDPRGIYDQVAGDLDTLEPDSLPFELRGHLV
Kind of test: co-IP; 0.5 mg podocyte lysate protein (modified radioimmunoprecipitation assay buffer) incubated with 1 ug anti-nephrin antibody at 4 °C overnight, immunoblot for ZO-1 or podocin; cells untreated or treated 48 hours with H2O2 (200 uM) or dynasore (150 uM), with or without catalase (0.5 uM): association reduced by H2O2 or dynasore, restored by catalase. A general note: A western blot detects proteins with antibodies after separation by electrophoresis.

Results are given in words; binding and its absence hold for the method and conditions named. Binding seen in cells or lysates may run through a third protein. Some binding calls cover weakened binding; strength is not graded here.

Turning to ZO-1 (from UniProt Q07157 1-1748), the binding result is “binds”.
